These are yes or no findings as the source states them, for the method shown. Binding seen in cells or lysates may run through a third protein. Here binding means that the protein was enriched with, or labelled near, the bait; the list need not be complete.
B1: NONO (protein, UniProt Q99K48 1-473)
chain: MQSNKAFNLEKQNHTPRKHHQHHHQQHHQQQQQQQQQQPPPPIPANGQQASSQNEGLTIDLKNFRKPGEKTFTQRSRLFVGNLPPDITEEEMRKLFEKYGKAGEVFIHKDKGFGFIRLETRTLAEIAKVELDNMPLRGKQLRVRFACHSASLTVRNLPQYVSNELLEEAFSVFGQVERAVVIVDDRGRPSGKGIVEFSGKPAARKALDRCSEGSFLLTTFPRPVTVEPMDQLDDEEGLPEKLVIKNQQFHKEREQPPRFAQPGSFEYEYAMRWKALIEMEKQQQDQVDRNIKEAREKLEMEMEAARHEHQVMLMRQDLMRRQEELRRMEELHNQEVQKRKQLELRQEEERRRREEEMRRQQEEMMRRQQEGFKGTFPDAREQEIRMGQMAMGGAMGINNRGAMPPAPVPPGTPAPPGPATMMPDGTLGLTPPTTERFGQAATMEGIGAIGGTPPAFNRPAPGAEFAPNKRRRY

By UniProt entry, the sequences of proteins in these tests, tags left out.
UniProt P22561: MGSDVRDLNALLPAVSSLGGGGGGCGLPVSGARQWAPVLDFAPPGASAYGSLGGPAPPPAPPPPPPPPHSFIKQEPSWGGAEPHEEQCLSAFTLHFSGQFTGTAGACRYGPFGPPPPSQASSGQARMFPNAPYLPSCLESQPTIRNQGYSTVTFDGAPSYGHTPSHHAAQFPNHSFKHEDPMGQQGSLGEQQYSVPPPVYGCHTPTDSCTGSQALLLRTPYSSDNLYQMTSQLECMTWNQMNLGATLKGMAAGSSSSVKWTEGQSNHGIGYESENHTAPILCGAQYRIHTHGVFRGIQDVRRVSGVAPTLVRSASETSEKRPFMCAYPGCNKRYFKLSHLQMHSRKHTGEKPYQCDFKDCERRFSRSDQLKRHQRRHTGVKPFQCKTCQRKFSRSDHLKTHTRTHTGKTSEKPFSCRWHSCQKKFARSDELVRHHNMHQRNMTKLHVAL
UniProt Q8CJG0: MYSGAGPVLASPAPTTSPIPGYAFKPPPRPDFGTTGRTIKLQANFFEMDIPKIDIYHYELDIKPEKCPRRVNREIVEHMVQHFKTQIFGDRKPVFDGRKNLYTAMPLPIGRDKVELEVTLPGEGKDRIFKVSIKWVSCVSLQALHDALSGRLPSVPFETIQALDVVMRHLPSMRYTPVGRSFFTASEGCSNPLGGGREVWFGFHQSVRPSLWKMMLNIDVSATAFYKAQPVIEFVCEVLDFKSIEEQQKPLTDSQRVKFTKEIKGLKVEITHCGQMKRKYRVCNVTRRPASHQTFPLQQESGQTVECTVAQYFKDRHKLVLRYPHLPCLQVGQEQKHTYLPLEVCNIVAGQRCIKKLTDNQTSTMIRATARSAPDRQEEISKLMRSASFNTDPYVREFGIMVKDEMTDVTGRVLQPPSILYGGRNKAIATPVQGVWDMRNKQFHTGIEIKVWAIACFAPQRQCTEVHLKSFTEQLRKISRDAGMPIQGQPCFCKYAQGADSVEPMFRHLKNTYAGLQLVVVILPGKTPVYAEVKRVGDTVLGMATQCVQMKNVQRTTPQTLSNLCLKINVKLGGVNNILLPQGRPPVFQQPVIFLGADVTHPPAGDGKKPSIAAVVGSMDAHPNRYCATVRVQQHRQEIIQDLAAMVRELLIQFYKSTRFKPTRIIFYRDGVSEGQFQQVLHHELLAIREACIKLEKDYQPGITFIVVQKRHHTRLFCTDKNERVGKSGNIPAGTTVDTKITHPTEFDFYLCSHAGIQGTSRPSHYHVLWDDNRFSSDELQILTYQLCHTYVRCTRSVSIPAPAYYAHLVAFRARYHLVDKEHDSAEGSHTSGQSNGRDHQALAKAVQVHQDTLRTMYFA
UniProt O70133: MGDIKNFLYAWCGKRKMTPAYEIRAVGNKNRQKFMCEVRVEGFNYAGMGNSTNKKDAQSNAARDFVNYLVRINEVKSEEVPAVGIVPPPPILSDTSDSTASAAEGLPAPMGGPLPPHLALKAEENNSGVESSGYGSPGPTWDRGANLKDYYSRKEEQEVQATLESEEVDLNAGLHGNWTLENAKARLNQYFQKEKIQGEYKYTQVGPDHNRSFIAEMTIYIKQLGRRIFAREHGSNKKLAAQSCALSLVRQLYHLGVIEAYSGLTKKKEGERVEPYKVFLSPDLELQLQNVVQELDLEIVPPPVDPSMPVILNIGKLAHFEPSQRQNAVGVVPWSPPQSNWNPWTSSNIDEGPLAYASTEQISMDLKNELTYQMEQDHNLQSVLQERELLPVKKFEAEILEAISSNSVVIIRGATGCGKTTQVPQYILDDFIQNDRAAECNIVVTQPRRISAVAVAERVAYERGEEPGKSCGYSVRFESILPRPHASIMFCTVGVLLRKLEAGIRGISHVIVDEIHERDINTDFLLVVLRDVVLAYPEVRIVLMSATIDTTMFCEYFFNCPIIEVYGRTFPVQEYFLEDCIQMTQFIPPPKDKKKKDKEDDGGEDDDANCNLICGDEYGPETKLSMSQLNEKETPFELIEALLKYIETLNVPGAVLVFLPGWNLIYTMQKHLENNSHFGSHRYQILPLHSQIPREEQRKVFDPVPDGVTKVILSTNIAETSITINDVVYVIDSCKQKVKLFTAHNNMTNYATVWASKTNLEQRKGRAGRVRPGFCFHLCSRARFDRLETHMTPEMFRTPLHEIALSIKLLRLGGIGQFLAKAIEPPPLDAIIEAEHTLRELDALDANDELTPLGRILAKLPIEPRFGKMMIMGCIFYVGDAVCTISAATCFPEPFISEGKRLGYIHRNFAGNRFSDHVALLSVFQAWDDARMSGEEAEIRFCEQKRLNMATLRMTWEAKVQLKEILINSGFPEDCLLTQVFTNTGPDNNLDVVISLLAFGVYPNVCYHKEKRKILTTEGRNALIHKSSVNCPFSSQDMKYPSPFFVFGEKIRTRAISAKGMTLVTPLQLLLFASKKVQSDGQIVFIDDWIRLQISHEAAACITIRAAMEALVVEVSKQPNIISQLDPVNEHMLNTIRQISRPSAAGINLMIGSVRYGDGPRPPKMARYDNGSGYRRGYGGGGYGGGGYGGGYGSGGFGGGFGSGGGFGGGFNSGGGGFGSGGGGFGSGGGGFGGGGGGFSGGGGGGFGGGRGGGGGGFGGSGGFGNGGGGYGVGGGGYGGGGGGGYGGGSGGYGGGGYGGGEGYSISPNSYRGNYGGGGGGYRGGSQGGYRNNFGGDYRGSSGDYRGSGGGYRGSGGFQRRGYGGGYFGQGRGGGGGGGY
UniProt P26369: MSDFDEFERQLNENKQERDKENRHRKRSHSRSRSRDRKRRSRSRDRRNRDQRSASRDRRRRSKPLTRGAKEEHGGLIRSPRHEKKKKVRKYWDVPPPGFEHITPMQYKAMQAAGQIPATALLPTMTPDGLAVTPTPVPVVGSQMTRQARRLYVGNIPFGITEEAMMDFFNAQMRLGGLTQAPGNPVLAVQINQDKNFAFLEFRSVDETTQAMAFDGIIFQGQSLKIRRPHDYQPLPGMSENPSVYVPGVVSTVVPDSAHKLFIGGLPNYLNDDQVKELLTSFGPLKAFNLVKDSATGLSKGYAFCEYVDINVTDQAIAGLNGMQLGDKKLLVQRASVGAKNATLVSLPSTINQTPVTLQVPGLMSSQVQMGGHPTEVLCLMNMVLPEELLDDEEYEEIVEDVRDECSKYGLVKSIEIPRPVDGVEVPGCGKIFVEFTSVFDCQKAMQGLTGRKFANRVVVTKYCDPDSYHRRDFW

Target: Wilms Tumour 1 (WT1) protein (mouse (endogenous in M15)) (UniProt P22561)
Assay: affinity purification with mass spectrometry

binding, binds:
AGO2 (from UniProt Q8CJG0 1-860), DHX9 (from UniProt O70133 1-1380), U2AF2 (from UniProt P26369 1-475), B1
